Measured values taken from the supplement of paper PMC10849652.
This is one part of the list.

Amino acid sequences for entries named in this document (tags omitted). A change or cut given only in a name is not applied to a line headed by its entry.
UniProt Q13867: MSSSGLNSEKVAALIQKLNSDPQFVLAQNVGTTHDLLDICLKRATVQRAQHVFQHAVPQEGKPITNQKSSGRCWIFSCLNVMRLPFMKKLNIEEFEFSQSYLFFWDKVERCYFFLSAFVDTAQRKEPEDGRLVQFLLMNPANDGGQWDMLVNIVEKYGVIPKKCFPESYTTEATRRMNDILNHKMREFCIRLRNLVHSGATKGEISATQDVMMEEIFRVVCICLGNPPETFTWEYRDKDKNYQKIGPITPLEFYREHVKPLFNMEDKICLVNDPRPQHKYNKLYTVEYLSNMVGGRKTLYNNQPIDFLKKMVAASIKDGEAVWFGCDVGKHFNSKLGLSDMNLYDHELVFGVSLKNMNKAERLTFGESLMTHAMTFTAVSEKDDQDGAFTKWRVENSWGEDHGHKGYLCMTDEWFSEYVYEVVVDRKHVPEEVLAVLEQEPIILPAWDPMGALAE
UniProt O14867: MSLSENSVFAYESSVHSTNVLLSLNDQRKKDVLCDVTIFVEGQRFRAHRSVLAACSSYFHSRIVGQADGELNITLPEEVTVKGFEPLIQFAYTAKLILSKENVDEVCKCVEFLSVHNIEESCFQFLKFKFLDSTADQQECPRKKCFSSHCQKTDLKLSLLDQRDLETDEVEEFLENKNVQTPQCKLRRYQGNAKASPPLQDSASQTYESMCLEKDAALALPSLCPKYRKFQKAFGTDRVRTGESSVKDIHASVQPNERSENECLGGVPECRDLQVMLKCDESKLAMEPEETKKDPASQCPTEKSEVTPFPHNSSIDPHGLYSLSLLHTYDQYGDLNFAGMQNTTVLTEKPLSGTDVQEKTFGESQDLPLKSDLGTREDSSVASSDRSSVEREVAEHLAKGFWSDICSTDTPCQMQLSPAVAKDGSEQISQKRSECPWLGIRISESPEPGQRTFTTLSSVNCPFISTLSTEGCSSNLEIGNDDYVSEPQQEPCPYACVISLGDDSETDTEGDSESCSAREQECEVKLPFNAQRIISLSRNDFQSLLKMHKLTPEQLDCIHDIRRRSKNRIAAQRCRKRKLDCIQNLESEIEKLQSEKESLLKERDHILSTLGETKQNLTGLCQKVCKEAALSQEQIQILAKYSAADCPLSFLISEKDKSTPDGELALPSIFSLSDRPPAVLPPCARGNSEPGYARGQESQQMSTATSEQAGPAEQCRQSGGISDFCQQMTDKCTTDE
UniProt O75934: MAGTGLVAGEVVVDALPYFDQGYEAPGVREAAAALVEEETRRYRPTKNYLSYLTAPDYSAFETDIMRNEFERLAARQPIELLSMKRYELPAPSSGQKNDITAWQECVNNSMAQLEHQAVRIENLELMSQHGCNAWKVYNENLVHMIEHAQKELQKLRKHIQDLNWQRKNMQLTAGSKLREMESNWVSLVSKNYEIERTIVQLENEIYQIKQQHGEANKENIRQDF
UniProt Q9NUP1: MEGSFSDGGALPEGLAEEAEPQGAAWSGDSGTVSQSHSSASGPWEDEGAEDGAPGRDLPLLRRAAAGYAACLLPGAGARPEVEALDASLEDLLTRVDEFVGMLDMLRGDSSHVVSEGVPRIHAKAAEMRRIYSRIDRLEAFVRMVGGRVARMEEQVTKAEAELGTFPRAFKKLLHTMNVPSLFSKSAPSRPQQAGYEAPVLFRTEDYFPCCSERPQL
UniProt Q99700, whole entry, looked up: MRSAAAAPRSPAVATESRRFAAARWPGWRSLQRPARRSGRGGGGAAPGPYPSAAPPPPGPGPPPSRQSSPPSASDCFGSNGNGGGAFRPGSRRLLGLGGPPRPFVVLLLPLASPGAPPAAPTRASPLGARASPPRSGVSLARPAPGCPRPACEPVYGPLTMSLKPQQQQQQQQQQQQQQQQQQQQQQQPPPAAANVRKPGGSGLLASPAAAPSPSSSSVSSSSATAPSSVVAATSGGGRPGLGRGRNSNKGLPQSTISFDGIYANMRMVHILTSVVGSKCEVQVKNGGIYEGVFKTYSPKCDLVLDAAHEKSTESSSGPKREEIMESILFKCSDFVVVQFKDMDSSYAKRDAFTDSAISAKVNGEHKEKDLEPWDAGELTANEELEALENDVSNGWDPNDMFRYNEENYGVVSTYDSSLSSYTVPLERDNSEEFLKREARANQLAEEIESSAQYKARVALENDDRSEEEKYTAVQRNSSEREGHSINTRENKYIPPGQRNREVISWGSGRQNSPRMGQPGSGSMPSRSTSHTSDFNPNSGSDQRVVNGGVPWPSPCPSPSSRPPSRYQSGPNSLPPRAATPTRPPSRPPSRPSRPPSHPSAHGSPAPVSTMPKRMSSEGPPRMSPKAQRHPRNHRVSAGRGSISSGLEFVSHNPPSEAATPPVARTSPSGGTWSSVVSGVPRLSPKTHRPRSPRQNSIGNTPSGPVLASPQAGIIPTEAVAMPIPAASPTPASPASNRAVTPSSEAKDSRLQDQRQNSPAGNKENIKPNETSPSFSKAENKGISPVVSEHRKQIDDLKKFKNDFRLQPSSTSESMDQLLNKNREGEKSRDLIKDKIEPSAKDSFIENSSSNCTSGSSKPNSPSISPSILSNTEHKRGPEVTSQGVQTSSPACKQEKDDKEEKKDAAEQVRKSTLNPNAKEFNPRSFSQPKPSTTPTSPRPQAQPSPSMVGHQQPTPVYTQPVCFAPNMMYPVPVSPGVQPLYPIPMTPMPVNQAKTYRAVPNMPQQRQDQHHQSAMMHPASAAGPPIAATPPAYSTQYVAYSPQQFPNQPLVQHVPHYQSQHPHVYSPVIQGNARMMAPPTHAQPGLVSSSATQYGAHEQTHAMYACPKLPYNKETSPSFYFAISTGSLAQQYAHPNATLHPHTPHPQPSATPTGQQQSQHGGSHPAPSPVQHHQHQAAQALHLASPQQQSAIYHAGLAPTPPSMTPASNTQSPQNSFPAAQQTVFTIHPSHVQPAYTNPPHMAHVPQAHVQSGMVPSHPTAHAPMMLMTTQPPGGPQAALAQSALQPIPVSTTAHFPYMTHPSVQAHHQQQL
UniProt O60512: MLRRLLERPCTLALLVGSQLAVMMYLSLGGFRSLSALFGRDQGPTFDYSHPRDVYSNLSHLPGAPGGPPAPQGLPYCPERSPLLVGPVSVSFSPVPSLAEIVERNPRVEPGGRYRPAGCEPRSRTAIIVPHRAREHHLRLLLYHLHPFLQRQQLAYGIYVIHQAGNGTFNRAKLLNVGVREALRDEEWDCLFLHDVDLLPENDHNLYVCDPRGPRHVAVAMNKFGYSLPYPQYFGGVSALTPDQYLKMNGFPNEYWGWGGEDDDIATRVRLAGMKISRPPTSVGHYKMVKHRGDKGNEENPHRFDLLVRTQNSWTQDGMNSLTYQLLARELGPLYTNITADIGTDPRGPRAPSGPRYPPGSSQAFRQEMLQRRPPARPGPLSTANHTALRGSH
UniProt P53004: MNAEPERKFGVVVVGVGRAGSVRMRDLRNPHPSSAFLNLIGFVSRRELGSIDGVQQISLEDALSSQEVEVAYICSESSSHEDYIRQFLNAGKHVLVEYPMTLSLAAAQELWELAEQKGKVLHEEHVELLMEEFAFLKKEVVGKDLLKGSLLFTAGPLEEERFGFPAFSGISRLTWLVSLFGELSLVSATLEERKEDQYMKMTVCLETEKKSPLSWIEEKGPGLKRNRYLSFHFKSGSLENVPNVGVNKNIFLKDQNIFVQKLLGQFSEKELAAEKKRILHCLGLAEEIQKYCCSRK
UniProt Q07812, whole entry, looked up: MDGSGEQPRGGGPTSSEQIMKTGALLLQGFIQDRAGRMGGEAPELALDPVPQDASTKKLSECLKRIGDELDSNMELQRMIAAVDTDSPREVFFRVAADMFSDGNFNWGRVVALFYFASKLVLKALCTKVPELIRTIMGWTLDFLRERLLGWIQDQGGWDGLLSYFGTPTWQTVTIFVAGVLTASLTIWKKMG
UniProt P12694: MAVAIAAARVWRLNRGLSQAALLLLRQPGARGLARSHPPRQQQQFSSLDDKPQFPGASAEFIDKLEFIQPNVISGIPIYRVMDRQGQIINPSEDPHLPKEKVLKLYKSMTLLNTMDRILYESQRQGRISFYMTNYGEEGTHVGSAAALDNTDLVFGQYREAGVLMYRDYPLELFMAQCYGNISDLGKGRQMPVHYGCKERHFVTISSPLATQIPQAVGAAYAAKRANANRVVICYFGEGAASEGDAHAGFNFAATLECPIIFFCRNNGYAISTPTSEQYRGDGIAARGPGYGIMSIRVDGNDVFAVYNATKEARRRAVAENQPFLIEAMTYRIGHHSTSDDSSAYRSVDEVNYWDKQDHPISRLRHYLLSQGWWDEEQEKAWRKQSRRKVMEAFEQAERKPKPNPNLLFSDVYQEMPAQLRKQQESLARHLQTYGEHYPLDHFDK
UniProt Q13490, whole entry, looked up: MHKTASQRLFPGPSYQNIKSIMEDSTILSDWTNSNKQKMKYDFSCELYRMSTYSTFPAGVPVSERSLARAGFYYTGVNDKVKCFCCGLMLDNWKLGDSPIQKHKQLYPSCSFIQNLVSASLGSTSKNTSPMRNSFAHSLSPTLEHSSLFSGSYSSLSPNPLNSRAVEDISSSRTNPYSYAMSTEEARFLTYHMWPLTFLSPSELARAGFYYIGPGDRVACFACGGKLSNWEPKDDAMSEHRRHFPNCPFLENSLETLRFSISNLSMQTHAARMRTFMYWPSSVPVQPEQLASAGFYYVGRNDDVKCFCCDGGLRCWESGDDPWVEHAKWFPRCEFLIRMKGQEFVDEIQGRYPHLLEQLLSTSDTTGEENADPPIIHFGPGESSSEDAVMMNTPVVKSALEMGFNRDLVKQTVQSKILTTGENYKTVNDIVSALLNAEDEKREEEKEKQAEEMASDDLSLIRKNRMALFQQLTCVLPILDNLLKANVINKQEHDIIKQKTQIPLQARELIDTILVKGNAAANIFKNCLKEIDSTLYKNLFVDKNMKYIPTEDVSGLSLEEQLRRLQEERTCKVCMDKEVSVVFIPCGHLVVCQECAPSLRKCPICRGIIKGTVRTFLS
UniProt Q14692: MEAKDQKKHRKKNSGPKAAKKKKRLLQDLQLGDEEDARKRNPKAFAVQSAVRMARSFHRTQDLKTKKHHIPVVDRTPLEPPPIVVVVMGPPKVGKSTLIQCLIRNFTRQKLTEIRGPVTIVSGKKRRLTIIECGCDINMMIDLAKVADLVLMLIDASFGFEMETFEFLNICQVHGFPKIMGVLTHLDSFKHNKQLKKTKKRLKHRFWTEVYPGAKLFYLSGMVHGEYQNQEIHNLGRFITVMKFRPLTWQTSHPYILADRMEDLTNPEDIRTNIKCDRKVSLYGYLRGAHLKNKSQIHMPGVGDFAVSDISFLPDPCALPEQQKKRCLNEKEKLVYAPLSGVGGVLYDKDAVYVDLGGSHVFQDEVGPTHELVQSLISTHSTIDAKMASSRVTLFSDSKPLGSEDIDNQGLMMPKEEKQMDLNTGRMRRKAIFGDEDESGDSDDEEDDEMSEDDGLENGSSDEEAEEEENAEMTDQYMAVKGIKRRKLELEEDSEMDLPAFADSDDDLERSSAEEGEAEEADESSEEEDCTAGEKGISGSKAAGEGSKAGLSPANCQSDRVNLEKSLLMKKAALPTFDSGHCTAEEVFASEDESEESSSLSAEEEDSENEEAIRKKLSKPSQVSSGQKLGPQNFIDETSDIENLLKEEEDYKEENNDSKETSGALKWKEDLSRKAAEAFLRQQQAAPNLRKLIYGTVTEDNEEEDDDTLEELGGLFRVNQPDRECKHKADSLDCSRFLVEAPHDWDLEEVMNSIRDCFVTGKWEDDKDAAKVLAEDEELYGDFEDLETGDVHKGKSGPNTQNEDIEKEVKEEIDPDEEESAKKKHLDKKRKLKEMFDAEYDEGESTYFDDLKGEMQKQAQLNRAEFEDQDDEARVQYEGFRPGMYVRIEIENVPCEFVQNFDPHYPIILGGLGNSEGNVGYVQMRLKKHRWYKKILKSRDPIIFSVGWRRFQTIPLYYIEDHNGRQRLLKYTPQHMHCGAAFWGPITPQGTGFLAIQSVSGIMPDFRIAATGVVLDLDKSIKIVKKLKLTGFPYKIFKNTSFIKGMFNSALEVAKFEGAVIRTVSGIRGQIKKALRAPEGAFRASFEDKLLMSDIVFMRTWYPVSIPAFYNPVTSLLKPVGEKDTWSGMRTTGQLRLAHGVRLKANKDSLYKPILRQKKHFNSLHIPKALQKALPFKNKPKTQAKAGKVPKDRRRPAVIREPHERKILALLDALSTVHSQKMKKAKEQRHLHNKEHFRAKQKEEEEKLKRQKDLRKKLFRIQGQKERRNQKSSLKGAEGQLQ
UniProt O15155: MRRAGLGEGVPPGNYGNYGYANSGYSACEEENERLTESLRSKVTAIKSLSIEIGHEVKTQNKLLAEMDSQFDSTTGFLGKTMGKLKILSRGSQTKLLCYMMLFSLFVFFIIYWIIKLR
UniProt O95861: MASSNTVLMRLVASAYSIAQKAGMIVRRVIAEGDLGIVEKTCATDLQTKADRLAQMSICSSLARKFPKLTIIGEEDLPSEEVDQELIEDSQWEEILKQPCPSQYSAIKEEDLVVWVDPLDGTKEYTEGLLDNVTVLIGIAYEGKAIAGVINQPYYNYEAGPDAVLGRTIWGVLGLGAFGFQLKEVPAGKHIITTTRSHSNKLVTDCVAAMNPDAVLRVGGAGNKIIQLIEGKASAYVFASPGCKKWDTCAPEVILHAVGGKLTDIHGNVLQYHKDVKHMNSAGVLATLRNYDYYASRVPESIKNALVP

Compound: C[C@@H](Oc1cc(-c2cnn(C3CCNCC3)c2)cnc1N)c1c(Cl)ccc(F)c1Cl [crizotinib]
Test: log2 fold change, soluble protein after heating vs DMSO (PISA); higher = thermal stabilisation; K562 cells, 10 uM, 30 min; active = over 0.2 and 3.5 SD of the protein, either way, in both replicates (recomputed)
How it was run: (§1)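 Quantification of soluble protein used TMTpro 16plex LC-MS/MS, with channel sums equalised. Samples were the supernatant after 21,000xg for 90 min of pooled aliquots from K562 cells (2×10^6 cells/mL) treated with 10 μM compound for 30 min, heated for 3 min over 48°C-58°C, and extracted in PBS with 0.5% NP-40 at 4°C. Values, from duplicates, describe thermal stability against control samples on a log2 fold-change scale.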

log2 fold change, inactive:
BCS1L (UniProt Q9Y276) 0.078, BRCC3 (UniProt P46736) 0.059, BCL2L2 isoform 2 (UniProt Q92843) 0.022, BLMH (UniProt Q13867) 0, BOLA3 (UniProt Q53S33) 0.066, BCL2L13 (UniProt Q9BXK5) -0.035, BACH1 (UniProt O14867) 0.04, BLOC1S1 (UniProt P78537) 0.032, BCAS2 (UniProt O75934) 0.134, AZGP1 (UniProt P25311) -0.001, BAK1 (UniProt Q16611) 0.118, BROX (UniProt Q5VW32) 0.075, BORCS6 (UniProt Q96GS4) -0.146, BAG6 isoform 3 (UniProt P46379) -0.02

Compound: C[C@@H]1COCCN1C2=NC(=NC(=C2)C3(CC3)S(=O)(=O)C)C4=C5C=CNC5=CC=C4
Test: as above
How it was run: as §1

log2 fold change, inactive:
BRAT1 (UniProt Q6PJG6) 0.02, BLOC1S4 (UniProt Q9NUP1) 0.045, ATXN2 (UniProt Q99700) -0.06, BCL2L1 (UniProt Q07817) 0.014, ATRIP (UniProt Q8WXE1) 0.007, B4GALT3 (UniProt O60512) 0.052, BLVRA (UniProt P53004) 0.102, BICD2 isoform 2 (UniProt Q8TD16) -0.025, BABAM1 (UniProt Q9NWV8) -0.096, BAX isoform 2 (UniProt Q07812) -0.021, BCKDHA (UniProt P12694) 0.066, BNIP2 (UniProt J3KN59) 0.044, BOLA2 (UniProt Q9H3K6) 0.085, BIRC2 (UniProt Q13490) 0.056, BAG3 (UniProt O95817) 0.007, BAHCC1 (UniProt Q9P281) 0.283, BMS1 (UniProt Q14692) -0.169, BCKDK (UniProt O14874) 0.007, BET1 (UniProt O15155) 0.132, BPNT1 (UniProt O95861) 0.007, BLOC1S5 (UniProt Q8TDH9) 0.092, B3GAT3 (UniProt O94766) 0.04, BIRC6 (UniProt Q9NR09) -0.021, BCS1L (UniProt Q9Y276) 0.044, BRCC3 (UniProt P46736) 0.116, BCL2L2 isoform 2 (UniProt Q92843) -0.035, BLMH (UniProt Q13867) 0.05, BOLA3 (UniProt Q53S33) 0.047, BCL2L13 (UniProt Q9BXK5) 0.051, BACH1 (UniProt O14867) 0.013, BLOC1S1 (UniProt P78537) 0.06, BCAS2 (UniProt O75934) 0.087, AZGP1 (UniProt P25311) 0.119, BAK1 (UniProt Q16611) 0.015, BROX (UniProt Q5VW32) 0.045, BORCS6 (UniProt Q96GS4) 0.012, BAG6 isoform 3 (UniProt P46379) -0.037
